Test results published in patent US6613352B2, “Low-rigidity liposomal formulation” (Universite de Montreal, priority 1999, dated 2003).

Test system: Candida albicans, strain 7238
Assay: MIC of yeast strain
Assay type: cell-based
Experimental: Yeast respiratory infections are a major problem in immunocompromised patients. To evaluate the fungicide activity of the liposomal-amphotericin B formulation produced according to the present invention (DPPC/DMPG), in vitro tests were performed against Candida albicans, strain 7238, MIC=1 μg/ml. To culture tubes containing 22.5 ml of C. albicans cells (final cell concentration of 103/ml), 7.5 ml of RPMI medium 1640 containing liposome-amphotericin B (final concentration of 0.125 μg/ml), free amphotericin B (final concentration of 0.125 μg/ml), or control PBS were added at time zero. Experiments were done in triplicate. At times 0, 3, 6, 12, 24, and 36 hours following the addition of antibiotic or control, 1.5 ml samples were collected and serial 10 fold dilutions were made and spread in triplicate on proteose peptone agar plates. CFU were counted after 24 hour and 48 hour incubations ar 37° C. under CO2. Counts were expressed in log CFU per ml of culture media.

Q: How did the MIC turn out when C[C@@H]1[C@H](O)[C@@H](C)/C=C/C=C/C=C/C=C/C=C/C=C/C=C/[C@H](O[C@@H]2O[C@H](C)[C@@H](O)[C@H](N)[C@@H]2O)C[C@@H]2O[C@](O)(C[C@@H](O)C[C@@H](O)[C@H](O)CC[C@@H](O)C[C@@H](O)CC(=O)O[C@H]1C)C[C@H](O)[C@H]2C(=O)O [amphotericin B] was run?
A: The MIC was 1 µg/mL.
